{"source": "paper PMC4860834", "molecular_target": "T1, His-tagged dysbindin-1A (human) (UniProt Q96EV8)", "T1 sequence": "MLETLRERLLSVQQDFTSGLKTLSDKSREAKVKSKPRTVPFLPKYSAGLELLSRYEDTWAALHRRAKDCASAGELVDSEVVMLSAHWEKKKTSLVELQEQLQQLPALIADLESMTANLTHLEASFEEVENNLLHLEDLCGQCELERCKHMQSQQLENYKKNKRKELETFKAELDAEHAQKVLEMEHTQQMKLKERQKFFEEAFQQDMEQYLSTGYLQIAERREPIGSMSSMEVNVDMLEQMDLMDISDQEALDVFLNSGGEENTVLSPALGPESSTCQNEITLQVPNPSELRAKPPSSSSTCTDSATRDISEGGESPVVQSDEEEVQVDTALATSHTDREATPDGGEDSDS", "experiment": "pull-down; His-tag pull-down: purified His-tagged bait (His-dysbindin-1A or His-Smt3) incubated with cell lysates holding HA-tagged dysbindin-1A or -1B; HA-tagged proteins detected in the pull-down fraction; only the target purified", "note": "No constants are given. Whether binding was seen depends on the method and setting. In cells and extracts the contact can be indirect. A result given as binding can be weak or reduced; the word gives no strength. Sequences can lack the tags named with a protein."}
{"substance": "HA-tagged dysbindin-1B (from UniProt Q96EV8-2)", "values": [{"measurement": "binding", "value": "binds"}]}
